Assay [1] deals with Smad3 (human (endogenous in 16HBE)), P84022. Nature of the assay: co-IP; total cellular protein extracts of 16HBE cells immunoprecipitated with anti-SMAD2/3 antibody (Co-IP kit, Thermo Fisher), western blot with anti-SMAD4 antibody; cells: control, TGF-β1 (10 ng/mL), or scutellarin (20, 50, 100 μM) before TGF-β1. As to conditions: remark: other sources report otherwise. Background: Immunoblotting shows a protein as a band on a membrane.

Assay [2] addresses Smad2 (human (endogenous in 16HBE)), Q15796. Described as above. As to conditions: remark: other sources report otherwise.

We go through one molecule from article PMC11147947.

Results are given in words; binding and its absence hold for the method and conditions named. Binding seen in cells or lysates may run through a third protein. Some binding calls cover weakened binding; strength is not graded here.

B1: Smad4, Q13485 1-552 (protein)
chain: MDNMSITNTPTSNDACLSIVHSLMCHRQGGESETFAKRAIESLVKKLKEKKDELDSLITAITTNGAHPSKCVTIQRTLDGRLQVAGRKGFPHVIYARLWRWPDLHKNELKHVKYCQYAFDLKCDSVCVNPYHYERVVSPGIDLSGLTLQSNAPSSMMVKDEYVHDFEGQPSLSTEGHSIQTIQHPPSNRASTETYSTPALLAPSESNATSTANFPNIPVASTSQPASILGGSHSEGLLQIASGPQPGQQQNGFTGQPATYHHNSTTTWTGSRTAPYTPNLPHHQNGHLQHHPPMPPHPGHYWPVHNELAFQPPISNHPAPEYWCSIAYFEMDVQVGETFKVPSSCPIVTVDGYVDPSGGDRFCLGQLSNVHRTEAIERARLHIGKGVQLECKGEGDVWVRCLSDHAVFVQSYYLDREAGRAPGDAVHKIYPSAYIKVFDLRQCHRQMQQQAATAQAAAAAQAAAVAGNIPGPGSVGGIAPAISLSAAAGIGVDDLRRLCILRMSFVKGWGPDYPRQSIKETPCWIEIHLHRALQLLDEVLHTMPIADPQPLD
For the molecule B1, the binding entry in assay [1] and in assay [2] was “binds” each time.
